Measured values: paper PMC10250352
Results are given in words; binding and its absence hold for the method and conditions named. Binding seen in cells or lysates may run through a third protein. These calls come from enrichment with a bait or labelling near it, and not all partners need be listed. A no says only that the protein was not detected with the bait.

Target: BRD-8^V5 (BRD-8 C-terminally tagged with V5) (Neurospora crassa) (UniProt Q7SC01)
Assay: affinity purification with mass spectrometry; BRD-8^V5 isolated from 5 g of Neurospora tissue grown in the light by a single step on V5 antibody-conjugated Dynabeads; single bands or the whole gel lane analysed by MS/MS; untagged strain 328-4 as negative control

B1: BDP-3 (the Neurospora ortholog of human BRD4) (protein, UniProt V5IPQ4 1-1102)
chain: MAVMTSQQADGGAALPEKPVTMATEAPTAAPDAPVADAPKSDAPAADAATADATGDAAPTPDAPVKDVADGDHQKETEVNGHDDAVSPKTLVPETKTDSLPTPKDEPSLEEAQTTPAKKEEDAPKAEESKEGERKSDEQAQKEDAKPAPVEEEKKAEEPAKEEEGPKDEGDKMEIDAPEVPAGDAQKEPVASPGEDKVPEPAAEEKPKEEEKPAAAEEAKEDKPAEPKADVATEAKSEAKSDDGPAAKEKEEAAAPAATETPATEPASKPPASPAKQQEDVEMADAPATVEEPAKSEQAKPAEATPTATQQETQDTAVSDVPPPTPAEDEKKDKESPQPSPAAPVAPVTADTSMSDAPPPSSKPYREREEDSEDEPVAKRAKVSPVADQASAKNEAKREDKMDVDSKPAASSASTSVHDRSEPKSLADDSINHLPISDYMNRQIRQVLAGVKKTKAGYHFRLPVSELWPGLWNEYSAKVKDPTDIQTMEKRLRGNLAKYHTLGDFKRDLEKLVQNSIAFNGEYHDVTAAARSCRDTILARLGGCPAFEPSRPEKKDFAKQHPTRHAEPRAASHLSSPSAPLPQRPQQPRVNTAAVPAPSSSKSIESPAFAIPANNNGMPLIRRDSTKPDSRAKRPVKPTHSKDLVYDTKRKKKLIPELRFCEEVLTELRKQRYYEFNEAFQKPVDPVALNIPTYHKIIKKPMDLSTMQSKLNAGDYASAKEFERDFDLIIKNCRLFNGEQHIVYEQALRLQSLYRREMSKKDEWLAKHAPAPAPHLSSNTSPRLKDESDWEEPESEGEPEVDEELKGAQQRLASYMKRLEEEQKKINDIMLEMNPNMADVEIAQSVVAMLQKQIITERSKIASMQPTKKAAPAKSHHANKPSVSKPKKAMPAGGSSHHAGGHVAKKASVSHSSMGGHGGGMGGMPKKAAARKPAPKRKMGTVEKEVIAAGIAELEGAQLERAIEIIKSDTGTGENDSGELELDIDQLSQEALTQLYDLAIKAFPHLQREKERTMAAQAPAPPPAAQRSKPVQKTKKNKPMSKMEQERRLQQLNELRAQAGRQGSGSQEPLESIEGTGRTSAEPAPQHHREEDSEDEESSEEE
  binding: no binding
